Data on 40 compounds can be found in the supplement of paper PMC12593923.

Counter-ions that a name gives are not always drawn. Several reference drugs read as weak here; read low effects with care.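 OVCAR3, described as chemosensitive, is one of three high-grade serous ovarian cancer lines that differ in chemosensitivity. Toxicity was scaled from DMSO vehicle wells to fully lysed wells; scores came from fitted multi-dose response curves, and the authors treated scores above 5 as indicating drug sensitivity.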

Test systems include OVCAR4; Kuramochi; OVCAR3.
Common to all, as to assay: drug sensitivity score (DSS2, cytotoxicity, CellTox Green); higher = more cytotoxic / more sensitive; extreme values may be limits of the assay
What all share (details): 72 h; doses 0.5, 1, 5 µM

Take `CC[C@@]1(O)C(=O)OCc2c1cc1n(c2=O)Cc2cc3ccccc3nc2-1` [Camptothecin]: the drug sensitivity score with OVCAR4, in the experiment on Kuramochi and in the experiment with OVCAR3 was 0 DSS each time.
On to `Cc1cnc(NC(=O)C2=C(O)c3ccccc3S(=O)(=O)N2C)s1` [Meloxicam], for which the drug sensitivity score in the experiment with OVCAR4, with Kuramochi and in the experiment with OVCAR3 was 0 DSS in each case.
Turning to `O=C1CCC[C@@H]2[C@H]3CCCN4CCC[C@H](CN12)[C@@H]34` [Sophoridine], the drug sensitivity score in the experiment with OVCAR4, with Kuramochi and in the experiment on OVCAR3 was 0 DSS throughout.
With `CC(C)[C@]12O[C@H]1[C@@H]1O[C@]13[C@]1(O[C@H]1C[C@H]1C4=C(CC[C@@]13C)C(=O)OC4)[C@@H]2O` [Triptolide], the drug sensitivity score in the experiment on OVCAR4 amounted to 4.8 DSS; in the experiment with Kuramochi, 0 DSS; in the experiment with OVCAR3 it was 0 DSS.
As for `CN(Cc1cnc2nc(N)nc(N)c2n1)c1ccc(C(=O)N[C@@H](CCC(=O)O)C(=O)O)cc1` [Methotrexate (disodium)], the drug sensitivity score in the experiment on OVCAR4, with Kuramochi and in the experiment on OVCAR3 was 0 DSS each time.
For the compound `O=C1O[C@H]([C@@H](O)CO)C(O)=C1O` [L-Ascorbic acid], the drug sensitivity score in the experiment with OVCAR4, in the experiment on Kuramochi and in the experiment with OVCAR3 was 0 DSS in each case.
For the compound `COc1ccc(-c2cc(C(F)F)nn2-c2ccc(S(N)(=O)=O)cc2)cc1F` [Deracoxib], the drug sensitivity score in the experiment with OVCAR4, in the experiment on Kuramochi and in the experiment with OVCAR3 was 0 DSS in each case.
As for `O=C(O)c1ccccc1O` [Salicylic acid], the drug sensitivity score with OVCAR4, with Kuramochi and with OVCAR3 was 0 DSS each time.
Consider `O=C1OCCN1/N=C/c1ccc([N+](=O)[O-])o1` [Furazolidone], for which the drug sensitivity score in the experiment on OVCAR4, with Kuramochi and in the experiment on OVCAR3 was 0 DSS in each case.
As for `Fc1ccc([C@@H]2CCNC[C@H]2COc2ccc3c(c2)OCO3)cc1` [Paroxetine (hydrochloride)], the drug sensitivity score in the experiment on OVCAR4, in the experiment on Kuramochi and in the experiment on OVCAR3 was 0 DSS in each case.
For `CC(C)C[C@H](NC(=O)CNC(=O)c1cc(Cl)ccc1Cl)B1OC(=O)C(CC(=O)O)(CC(=O)O)O1` [Ixazomib citrate], the drug sensitivity score with OVCAR4 was 2.3 DSS; in the experiment with Kuramochi it was 2.6 DSS; in the experiment with OVCAR3, 2.3 DSS.
Consider `N[C@@H](CCC(=O)O)C(=O)O` [L-Glutamic acid], for which the drug sensitivity score in the experiment with OVCAR4, in the experiment on Kuramochi and in the experiment on OVCAR3 was 0 DSS in each case.
Regarding `CC(C)C[C@H]1C(=O)N2CCC[C@H]2[C@]2(O)O[C@](NC(=O)[C@@H]3C=C4c5cccc6[nH]c(Br)c(c56)C[C@H]4N(C)C3)(C(C)C)C(=O)N12` [Bromocriptine (mesylate)], the drug sensitivity score with OVCAR4, in the experiment on Kuramochi and in the experiment with OVCAR3 was 0 DSS each time.
For the compound `C=C(c1ccc(C(=O)O)cc1)c1cc2c(cc1C)C(C)(C)CCC2(C)C` [Bexarotene], the drug sensitivity score with OVCAR4, in the experiment on Kuramochi and in the experiment on OVCAR3 was 0 DSS each time.
For the compound `OC1(c2ccc(Cl)c(C(F)(F)F)c2)CCN(CCCC(c2ccc(F)cc2)c2ccc(F)cc2)CC1` [Penfluridol], the values for the drug sensitivity score in the experiment with OVCAR4, in the experiment with Kuramochi and with OVCAR3 were 1.2 DSS, 1.1 DSS and 0.7 DSS, respectively.
The matching figures for `NCCCNCCSP(=O)(O)O` [Amifostine]: 0 DSS, 0 DSS and 0 DSS.
Regarding `CCC1=C[C@@H]2CN(C1)Cc1c([nH]c3ccccc13)[C@@](C(=O)OC)(c1cc3c(cc1OC)N(C)[C@H]1[C@@](O)(C(=O)OC)[C@H](OC(C)=O)[C@]4(CC)C=CCN5CC[C@]31[C@@H]54)C2` [Vinorelbine (ditartrate)], the drug sensitivity score with OVCAR4 is 0.8 DSS; in the experiment with Kuramochi, 2.7 DSS; in the experiment on OVCAR3, 8.7 DSS.
With `OC(CNCC(O)C1CCc2cc(F)ccc2O1)C1CCc2cc(F)ccc2O1` (stereo not given) [Nebivolol (hydrochloride)], the drug sensitivity score with OVCAR4, in the experiment on Kuramochi and in the experiment on OVCAR3 was 0 DSS throughout.
As for `N[C@@H](CC(=O)N1CCn2c(nnc2C(F)(F)F)C1)Cc1cc(F)c(F)cc1F` [Sitagliptin (phosphate)], the drug sensitivity score in the experiment on OVCAR4, in the experiment with Kuramochi and in the experiment with OVCAR3 was 0 DSS in each case.
Consider `O=c1[nH]c(=O)n([C@H]2C[C@H](O)[C@@H](CO)O2)cc1F` [Floxuridine], for which the drug sensitivity score in the experiment on OVCAR4, in the experiment on Kuramochi and in the experiment on OVCAR3 was 0 DSS throughout.
On to `CC[C@@]1(O)C(=O)OCc2c1cc1n(c2=O)Cc2cc3cc(O)ccc3nc2-1` [(S)-10-Hydroxycamptothecin], for which the drug sensitivity score in the experiment with OVCAR4 was 0 DSS; in the experiment on Kuramochi, 0.4 DSS; in the experiment on OVCAR3 it was 3.1 DSS.
Consider `COc1cccc2c1C(=O)c1c(O)c3c(c(O)c1C2=O)C[C@@](O)(C(=O)CO)C[C@@H]3O[C@H]1C[C@H](N)[C@@H](O)[C@H](C)O1` [Epirubicin (hydrochloride)], for which the drug sensitivity score in the experiment with OVCAR4, with Kuramochi and in the experiment on OVCAR3 was 0 DSS in each case.
For `CN1CC[C@@H](NC(=O)Nc2ccc(C#N)cc2)C[C@@H]1c1nc2ccccc2[nH]1` [Glasdegib], the drug sensitivity score in the experiment with OVCAR4, in the experiment with Kuramochi and with OVCAR3 was 0 DSS each time.
As to `O=c1cc(-c2ccccc2)oc2cc(O)c(O)c(O)c12` [Baicalein], the drug sensitivity score in the experiment with OVCAR4, in the experiment on Kuramochi and in the experiment with OVCAR3 was 0 DSS each time.
`CN(C)C/C=C/C(=O)Nc1cc2c(Nc3ccc(F)c(Cl)c3)ncnc2cc1O[C@H]1CCOC1` [Afatinib]: the drug sensitivity score with OVCAR4, in the experiment on Kuramochi and in the experiment with OVCAR3 was 0 DSS throughout.
For the compound `CC1=C(/C=C/C(C)=C/C=C/C(C)=C/C(=O)O)C(C)(C)CCC1` [Retinoic acid], the drug sensitivity score in the experiment on OVCAR4 was determined as 0 DSS; in the experiment with Kuramochi, 0 DSS; with OVCAR3, 2 DSS.
In the case of `CN(C)C(=N)NC(=N)N` [Metformin (hydrochloride)], the drug sensitivity score in the experiment with OVCAR4, in the experiment on Kuramochi and with OVCAR3 was 0 DSS each time.
`O=C(N/N=C/c1ccc([N+](=O)[O-])o1)c1ccc(O)cc1` [Nifuroxazide]: the drug sensitivity score in the experiment with OVCAR4, in the experiment on Kuramochi and with OVCAR3 was 0 DSS each time.
With `COc1cc2c(cc1OC(C)C)[C@H](c1ccc(Cl)cc1)N(c1ccc(N(C)C[C@H]3CC[C@H](N4CCN(C)C(=O)C4)CC3)cc1)C(=O)C2` [NVP-CGM097 (sulfate)], the drug sensitivity score with OVCAR4, with Kuramochi and with OVCAR3 was 0 DSS each time.
Take `CC[C@@]1(O)C(=O)OCc2c1cc1n(c2=O)Cc2cc3c(CN(C)C)c(O)ccc3nc2-1` [Topotecan (Hydrochloride)]: the figures for the drug sensitivity score in the experiment on OVCAR4, in the experiment with Kuramochi and in the experiment with OVCAR3 were 2.3 DSS, 4.9 DSS and 2.3 DSS, respectively.
With `O=C(Nc1cnn2ccc(N3CCC[C@@H]3c3cc(F)ccc3F)nc12)N1CC[C@H](O)C1` [Larotrectinib], the drug sensitivity score in the experiment with OVCAR4, in the experiment on Kuramochi and with OVCAR3 was 0 DSS each time.
In the case of `O=c1[nH]cnc2c([C@@H]3N[C@H](CO)[C@@H](O)[C@H]3O)c[nH]c12` [Forodesine (hydrochloride)], the drug sensitivity score with OVCAR4 turned out to be 0 DSS; in the experiment with Kuramochi, 0 DSS; in the experiment with OVCAR3, 2.4 DSS.
Turning to `N#CC[C@H](C1CCCC1)n1cc(-c2ncnc3[nH]ccc23)cn1` [Ruxolitinib], the drug sensitivity score with OVCAR4, in the experiment on Kuramochi and with OVCAR3 was 0 DSS each time.
Turning to `C=CCc1ccc(O)c(OC)c1` [Eugenol], the drug sensitivity score with OVCAR4, in the experiment with Kuramochi and in the experiment on OVCAR3 was 0 DSS in each case.
For `NC(=O)c1cccc2cn(-c3ccc([C@@H]4CCCNC4)cc3)nc12` [Niraparib (hydrochloride)], the drug sensitivity score in the experiment on OVCAR4 is 0 DSS; in the experiment with Kuramochi, 0 DSS; in the experiment on OVCAR3, 1.5 DSS.
Regarding `CN1CC(=O)N2[C@H](c3ccc4c(c3)OCO4)c3[nH]c4ccccc4c3C[C@@H]2C1=O` [Tadalafil], the drug sensitivity score in the experiment with OVCAR4, in the experiment on Kuramochi and with OVCAR3 was 0 DSS in each case.
Regarding `O=C(O)c1cc(O)c(O)c(O)c1` [Gallic acid], the drug sensitivity score in the experiment on OVCAR4, with Kuramochi and in the experiment on OVCAR3 was 0 DSS in each case.
Turning to `CCCCCOC(=O)Nc1nc(=O)n([C@@H]2O[C@H](C)[C@@H](O)[C@H]2O)cc1F` [Capecitabine], the drug sensitivity score with OVCAR4, in the experiment with Kuramochi and with OVCAR3 was 0 DSS each time.
As to `CCCc1nn(C)c2c(=O)[nH]c(-c3cc(S(=O)(=O)N4CCN(C)CC4)ccc3OCC)nc12` [Sildenafil], the results for the drug sensitivity score with OVCAR4, with Kuramochi and in the experiment with OVCAR3 were 0 DSS, 3.3 DSS and 2.3 DSS, respectively.
Regarding `O=C(O)C[C@H](O)C[C@H](O)/C=C/c1c(C2CC2)nc2ccccc2c1-c1ccc(F)cc1` [Pitavastatin (Calcium)], the drug sensitivity score with OVCAR4, in the experiment with Kuramochi and in the experiment on OVCAR3 was 0 DSS each time.
